PubChem BioAssay AID504774 – Drosophila RNAi Screening Center, 2011

Purpose: 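Knock-downs that shift viability of MMS-exposed cells relative to untreated ones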 (primary screen)
Cell system: Drosophila Kc167 cells
Reagent: long dsRNA against Drosophila genes, about 0.25 µg dsRNA per well
Duration: about 6 days: 3 days knock-down, then 3 days with or without MMS
Treatment: methyl methanesulphonate 0.004% (w/v) for 3 days after knock-down
Read-out: 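Viability in wells given MMS, read as ATP luminescence, normalised by quantiles plate by plate and averaged across replicates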
Scale: mean viability with MMS: higher = more surviving cells after MMS
In all, the deposit lists about 23,000 reagents; below is a random part of those that have a named target and a result. 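Values are quantile-normalised luminescence on an arbitrary scale; higher means more cells surviving MMS.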 Reagents against one gene are numbered here. A plus sign joins genes that one reagent is predicted to hit. Further read-outs or replicates are left out here. No sequences are given here.

gene	reagent	mean viability with MMS
CG15803	1	3.57e6
MED17	1	3.22e6
CG31624	1	3.59e6
VhaPPA1-1	1	3.52e6
CG10962	1	3.36e6
trsn	1	3.58e6
Octalpha2R	1	3.39e6
Octalpha2R	2	3.52e6
TAF1B	1	3.49e6
Ada1-1 + Ada1-2	1	3.38e6
Ada1-1 + Ada1-2	2	3.38e6
spict	1	3.61e6
Fkbp39	1	3.34e6
lncRNA:bxd	1	3.58e6
Proc	1	2.72e6
Proc	2	3.62e6
CtIP	1	3.58e6
CG30398	1	3.45e6
La	1	3.57e6
CNT2	1	3.35e6
alphaTub84B	1	3.28e6
CG30471	1	3.69e6

9 neighbouring records already listed, quoted:
gene	reagent	mean viability with MMS
Ada1-1 + Ada1-2	2	3.38e6
spict	1	3.61e6
Fkbp39	1	3.34e6
lncRNA:bxd	1	3.58e6
Proc	1	2.72e6
Proc	2	3.62e6
CtIP	1	3.58e6
CG30398	1	3.45e6
La	1	3.57e6

Additional records follow:
gene	reagent	mean viability with MMS
TwdlN	1	3.47e6
CG1622	1	3.59e6
CG12325	1	3.47e6
Rab4 + CG42239	1	3.50e6
CG10802	1	3.59e6
gl	1	3.56e6
tapas	1	3.60e6
CG42326	1	3.56e6
CG42326	2	3.50e6
Polr3C	1	3.41e6
Tsp42Ei	1	3.63e6
Naa30A	1	2.81e6
Naa30A	2	3.42e6
Kyat	1	3.47e6
CG13029	1	3.49e6
CG17192	1	3.63e6
chinmo	1	3.92e6
chinmo	2	3.37e6
chinmo	3	3.21e6
chinmo	4	3.26e6
Gbp3	1	3.67e6
CG4617	1	3.44e6
CG31323	1	3.31e6
Ugt35B1	1	3.48e6
grau	1	3.10e6
RpL19	1	2.28e6
Brd8	1	3.89e6
CG12684	1	3.60e6
Naxe	1	3.58e6
CG13501	1	3.47e6
Adf1	1	3.56e6
Adf1	2	3.34e6
wde	1	3.50e6
CG14671	1	3.66e6
CG33777	1	3.47e6
CG10700	1	3.62e6
Sytbeta	1	3.81e6
Sytbeta	2	3.50e6
Uch-L5	1	3.46e6
CG7320	1	3.66e6
GstE14	1	3.61e6
pasi2	1	3.44e6
mthl6	1	3.65e6
CG14395	1	3.46e6
Ypel	1	3.26e6
CG13168	1	3.70e6
